{
  "sequences": {"note": "Chains of the proteins cited; added tags and fusions are not shown. Residues count along the entry.", "UniProt Q9QUK6, residues 26-835": "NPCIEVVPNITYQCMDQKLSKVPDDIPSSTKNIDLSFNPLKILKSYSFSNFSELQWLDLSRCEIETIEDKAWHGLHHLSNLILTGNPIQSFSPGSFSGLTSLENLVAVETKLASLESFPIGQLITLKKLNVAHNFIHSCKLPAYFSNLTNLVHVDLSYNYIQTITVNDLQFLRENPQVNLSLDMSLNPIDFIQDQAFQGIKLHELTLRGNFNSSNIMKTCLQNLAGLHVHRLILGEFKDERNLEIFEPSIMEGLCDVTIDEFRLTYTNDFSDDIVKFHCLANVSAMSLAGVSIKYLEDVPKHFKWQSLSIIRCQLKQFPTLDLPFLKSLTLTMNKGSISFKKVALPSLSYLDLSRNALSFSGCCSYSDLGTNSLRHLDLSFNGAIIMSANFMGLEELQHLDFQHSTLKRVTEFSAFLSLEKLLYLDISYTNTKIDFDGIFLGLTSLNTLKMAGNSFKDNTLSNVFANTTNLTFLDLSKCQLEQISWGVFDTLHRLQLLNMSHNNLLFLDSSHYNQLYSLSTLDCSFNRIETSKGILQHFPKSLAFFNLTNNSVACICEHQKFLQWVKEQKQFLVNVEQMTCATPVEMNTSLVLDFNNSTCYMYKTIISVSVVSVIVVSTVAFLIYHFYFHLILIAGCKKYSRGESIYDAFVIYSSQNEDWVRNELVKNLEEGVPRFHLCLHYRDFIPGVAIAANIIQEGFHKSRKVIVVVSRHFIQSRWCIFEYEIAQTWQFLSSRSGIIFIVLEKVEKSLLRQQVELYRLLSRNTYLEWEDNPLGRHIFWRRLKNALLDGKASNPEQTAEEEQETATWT"},
  "source": "paper PMC10060384",
  "biological_target": "Toll-like receptor 4 (mouse (endogenous in BMDM)) (UniProt Q9QUK6)",
  "assay": "co-IP; only the binder purified",
  "note": "Results are given in words; binding and its absence hold for the method and conditions named. In cells and extracts the contact can be indirect. Some results given as binding are weak or reduced against the parent protein; the word gives no strength.",
  "data": [
    {"substance": "recombinant influenza virus matrix 1 (M1) protein (from UniProt P03485 1-252)", "values": [
      {"measurement": "binding", "value": "binds"}
    ]}
  ]
}
